Laboratory results from PubChem BioAssay (NCATS).
The shares of active, inactive and inconclusive entries below differ from those in the screen. For some assays here: A potency beside an inconclusive call is a rough fit, not a confirmed value. Calls of active or inactive are those of the source. Unless noted, calls follow the shape of the dose curve; as a rule, active = well fitted curve in the direction sought with a large enough effect; inconclusive = small, poorly fitted or top-dose-only effect, or another doubt; inactive = no such curve, though single readings can be large; an effect the other way counts as inactive or inconclusive.

Protein sequences, listed by entry. Tags and fused reporters are not part of them. Lines headed by an entry give the natural chain unless they say otherwise; changes in a name come on top.
UniProt Q9BV86: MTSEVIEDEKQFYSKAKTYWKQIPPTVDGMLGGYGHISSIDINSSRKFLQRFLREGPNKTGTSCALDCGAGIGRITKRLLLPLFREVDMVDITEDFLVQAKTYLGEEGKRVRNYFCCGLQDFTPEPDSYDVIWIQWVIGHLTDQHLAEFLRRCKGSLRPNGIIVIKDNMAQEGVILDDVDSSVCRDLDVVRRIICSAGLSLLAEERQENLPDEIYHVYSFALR
UniProt Q9UGL1: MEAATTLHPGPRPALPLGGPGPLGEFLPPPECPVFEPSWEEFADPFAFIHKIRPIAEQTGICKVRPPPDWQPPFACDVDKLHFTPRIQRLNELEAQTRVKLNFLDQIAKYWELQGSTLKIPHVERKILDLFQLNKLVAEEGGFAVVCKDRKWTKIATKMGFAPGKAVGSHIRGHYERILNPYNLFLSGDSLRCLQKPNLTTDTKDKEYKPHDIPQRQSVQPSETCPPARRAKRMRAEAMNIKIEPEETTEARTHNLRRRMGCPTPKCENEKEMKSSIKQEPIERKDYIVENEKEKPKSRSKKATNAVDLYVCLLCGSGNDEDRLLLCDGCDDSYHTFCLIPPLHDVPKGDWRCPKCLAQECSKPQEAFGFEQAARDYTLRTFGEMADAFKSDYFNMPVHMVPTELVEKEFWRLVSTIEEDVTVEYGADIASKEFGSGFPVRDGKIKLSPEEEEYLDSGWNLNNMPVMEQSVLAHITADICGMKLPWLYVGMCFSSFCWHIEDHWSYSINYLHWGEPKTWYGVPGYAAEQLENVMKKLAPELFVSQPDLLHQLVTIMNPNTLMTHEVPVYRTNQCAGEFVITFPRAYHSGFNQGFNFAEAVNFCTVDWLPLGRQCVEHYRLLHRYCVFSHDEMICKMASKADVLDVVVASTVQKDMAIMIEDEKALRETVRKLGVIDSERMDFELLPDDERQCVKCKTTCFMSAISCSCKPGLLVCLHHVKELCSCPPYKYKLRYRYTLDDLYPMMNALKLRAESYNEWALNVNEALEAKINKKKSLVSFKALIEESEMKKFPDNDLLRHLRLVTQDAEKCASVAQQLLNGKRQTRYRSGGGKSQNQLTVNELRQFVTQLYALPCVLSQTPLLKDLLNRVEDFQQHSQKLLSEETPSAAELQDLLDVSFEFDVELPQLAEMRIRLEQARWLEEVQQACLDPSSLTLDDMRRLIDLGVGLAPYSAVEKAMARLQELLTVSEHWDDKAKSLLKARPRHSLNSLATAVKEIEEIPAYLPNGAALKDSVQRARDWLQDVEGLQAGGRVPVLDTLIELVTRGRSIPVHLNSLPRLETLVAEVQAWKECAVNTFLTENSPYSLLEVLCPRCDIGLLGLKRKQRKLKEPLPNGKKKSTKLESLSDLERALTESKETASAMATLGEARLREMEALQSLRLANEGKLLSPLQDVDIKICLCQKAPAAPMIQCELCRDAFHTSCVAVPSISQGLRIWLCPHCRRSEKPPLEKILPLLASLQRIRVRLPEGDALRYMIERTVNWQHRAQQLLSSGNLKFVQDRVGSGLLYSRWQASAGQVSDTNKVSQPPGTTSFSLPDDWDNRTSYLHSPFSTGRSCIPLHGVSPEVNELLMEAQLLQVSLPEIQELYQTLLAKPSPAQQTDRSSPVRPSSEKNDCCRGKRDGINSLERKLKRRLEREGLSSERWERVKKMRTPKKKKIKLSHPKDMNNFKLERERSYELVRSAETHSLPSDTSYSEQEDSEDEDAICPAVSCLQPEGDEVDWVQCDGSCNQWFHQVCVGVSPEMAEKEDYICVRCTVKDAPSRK
UniProt P54132: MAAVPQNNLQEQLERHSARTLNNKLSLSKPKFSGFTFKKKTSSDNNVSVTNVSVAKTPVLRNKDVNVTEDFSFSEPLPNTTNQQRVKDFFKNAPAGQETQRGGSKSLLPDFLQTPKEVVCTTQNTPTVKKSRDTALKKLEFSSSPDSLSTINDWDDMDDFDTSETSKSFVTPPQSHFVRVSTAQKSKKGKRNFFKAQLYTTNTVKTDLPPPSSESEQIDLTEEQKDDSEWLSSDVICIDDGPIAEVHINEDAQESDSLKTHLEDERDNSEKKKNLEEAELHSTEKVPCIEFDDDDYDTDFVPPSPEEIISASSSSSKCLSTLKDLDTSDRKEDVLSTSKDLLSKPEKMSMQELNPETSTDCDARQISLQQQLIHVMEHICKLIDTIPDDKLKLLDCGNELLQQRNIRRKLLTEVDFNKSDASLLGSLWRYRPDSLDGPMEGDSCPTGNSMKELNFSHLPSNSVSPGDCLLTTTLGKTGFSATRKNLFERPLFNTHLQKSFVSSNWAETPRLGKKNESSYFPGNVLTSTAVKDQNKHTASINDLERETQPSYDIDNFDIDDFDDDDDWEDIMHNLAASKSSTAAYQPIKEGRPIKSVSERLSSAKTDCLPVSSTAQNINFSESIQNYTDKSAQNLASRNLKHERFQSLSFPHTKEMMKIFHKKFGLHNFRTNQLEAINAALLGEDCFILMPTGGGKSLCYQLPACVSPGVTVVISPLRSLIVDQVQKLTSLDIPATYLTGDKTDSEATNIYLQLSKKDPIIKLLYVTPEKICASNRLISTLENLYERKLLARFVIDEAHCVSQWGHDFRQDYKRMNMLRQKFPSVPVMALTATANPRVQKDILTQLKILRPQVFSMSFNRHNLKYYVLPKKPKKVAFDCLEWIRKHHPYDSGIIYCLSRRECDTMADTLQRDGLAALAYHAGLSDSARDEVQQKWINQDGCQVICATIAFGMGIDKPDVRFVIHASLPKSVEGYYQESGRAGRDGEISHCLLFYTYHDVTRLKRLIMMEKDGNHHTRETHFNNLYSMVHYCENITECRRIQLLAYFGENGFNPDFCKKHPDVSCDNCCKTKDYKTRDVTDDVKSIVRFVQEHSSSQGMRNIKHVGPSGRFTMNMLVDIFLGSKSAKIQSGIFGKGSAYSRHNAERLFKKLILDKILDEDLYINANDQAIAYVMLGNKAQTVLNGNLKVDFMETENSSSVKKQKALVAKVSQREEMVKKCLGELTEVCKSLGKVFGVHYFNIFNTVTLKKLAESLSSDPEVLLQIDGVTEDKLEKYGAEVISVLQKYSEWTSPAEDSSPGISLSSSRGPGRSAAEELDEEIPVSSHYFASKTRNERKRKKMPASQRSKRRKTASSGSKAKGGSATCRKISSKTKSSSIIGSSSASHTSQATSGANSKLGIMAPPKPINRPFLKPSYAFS
UniProt O15648: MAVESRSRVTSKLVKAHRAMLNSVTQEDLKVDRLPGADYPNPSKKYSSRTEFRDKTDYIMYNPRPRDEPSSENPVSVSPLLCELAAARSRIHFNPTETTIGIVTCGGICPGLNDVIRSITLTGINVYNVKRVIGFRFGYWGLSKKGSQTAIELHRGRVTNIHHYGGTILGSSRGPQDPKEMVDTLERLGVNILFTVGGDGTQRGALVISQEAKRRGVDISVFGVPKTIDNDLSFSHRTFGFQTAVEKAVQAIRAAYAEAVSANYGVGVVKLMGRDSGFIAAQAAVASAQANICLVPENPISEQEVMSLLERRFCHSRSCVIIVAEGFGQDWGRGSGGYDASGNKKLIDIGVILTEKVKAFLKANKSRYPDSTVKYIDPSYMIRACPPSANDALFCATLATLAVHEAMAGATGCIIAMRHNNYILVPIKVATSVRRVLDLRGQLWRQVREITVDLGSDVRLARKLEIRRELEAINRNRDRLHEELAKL
UniProt P15289: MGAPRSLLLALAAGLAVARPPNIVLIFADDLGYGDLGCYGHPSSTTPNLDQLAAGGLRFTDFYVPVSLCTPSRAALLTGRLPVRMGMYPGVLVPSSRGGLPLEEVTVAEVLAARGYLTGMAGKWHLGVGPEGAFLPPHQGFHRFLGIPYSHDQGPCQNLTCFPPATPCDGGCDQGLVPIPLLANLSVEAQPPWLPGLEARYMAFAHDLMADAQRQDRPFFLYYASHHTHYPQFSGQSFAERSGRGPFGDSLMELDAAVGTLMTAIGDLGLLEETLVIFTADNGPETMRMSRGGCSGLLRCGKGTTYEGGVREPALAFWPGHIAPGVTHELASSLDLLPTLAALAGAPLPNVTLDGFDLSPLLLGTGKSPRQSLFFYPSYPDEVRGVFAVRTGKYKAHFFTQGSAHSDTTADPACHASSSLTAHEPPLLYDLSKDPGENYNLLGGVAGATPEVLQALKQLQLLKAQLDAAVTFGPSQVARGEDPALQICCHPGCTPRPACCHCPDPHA
UniProt Q96QE3: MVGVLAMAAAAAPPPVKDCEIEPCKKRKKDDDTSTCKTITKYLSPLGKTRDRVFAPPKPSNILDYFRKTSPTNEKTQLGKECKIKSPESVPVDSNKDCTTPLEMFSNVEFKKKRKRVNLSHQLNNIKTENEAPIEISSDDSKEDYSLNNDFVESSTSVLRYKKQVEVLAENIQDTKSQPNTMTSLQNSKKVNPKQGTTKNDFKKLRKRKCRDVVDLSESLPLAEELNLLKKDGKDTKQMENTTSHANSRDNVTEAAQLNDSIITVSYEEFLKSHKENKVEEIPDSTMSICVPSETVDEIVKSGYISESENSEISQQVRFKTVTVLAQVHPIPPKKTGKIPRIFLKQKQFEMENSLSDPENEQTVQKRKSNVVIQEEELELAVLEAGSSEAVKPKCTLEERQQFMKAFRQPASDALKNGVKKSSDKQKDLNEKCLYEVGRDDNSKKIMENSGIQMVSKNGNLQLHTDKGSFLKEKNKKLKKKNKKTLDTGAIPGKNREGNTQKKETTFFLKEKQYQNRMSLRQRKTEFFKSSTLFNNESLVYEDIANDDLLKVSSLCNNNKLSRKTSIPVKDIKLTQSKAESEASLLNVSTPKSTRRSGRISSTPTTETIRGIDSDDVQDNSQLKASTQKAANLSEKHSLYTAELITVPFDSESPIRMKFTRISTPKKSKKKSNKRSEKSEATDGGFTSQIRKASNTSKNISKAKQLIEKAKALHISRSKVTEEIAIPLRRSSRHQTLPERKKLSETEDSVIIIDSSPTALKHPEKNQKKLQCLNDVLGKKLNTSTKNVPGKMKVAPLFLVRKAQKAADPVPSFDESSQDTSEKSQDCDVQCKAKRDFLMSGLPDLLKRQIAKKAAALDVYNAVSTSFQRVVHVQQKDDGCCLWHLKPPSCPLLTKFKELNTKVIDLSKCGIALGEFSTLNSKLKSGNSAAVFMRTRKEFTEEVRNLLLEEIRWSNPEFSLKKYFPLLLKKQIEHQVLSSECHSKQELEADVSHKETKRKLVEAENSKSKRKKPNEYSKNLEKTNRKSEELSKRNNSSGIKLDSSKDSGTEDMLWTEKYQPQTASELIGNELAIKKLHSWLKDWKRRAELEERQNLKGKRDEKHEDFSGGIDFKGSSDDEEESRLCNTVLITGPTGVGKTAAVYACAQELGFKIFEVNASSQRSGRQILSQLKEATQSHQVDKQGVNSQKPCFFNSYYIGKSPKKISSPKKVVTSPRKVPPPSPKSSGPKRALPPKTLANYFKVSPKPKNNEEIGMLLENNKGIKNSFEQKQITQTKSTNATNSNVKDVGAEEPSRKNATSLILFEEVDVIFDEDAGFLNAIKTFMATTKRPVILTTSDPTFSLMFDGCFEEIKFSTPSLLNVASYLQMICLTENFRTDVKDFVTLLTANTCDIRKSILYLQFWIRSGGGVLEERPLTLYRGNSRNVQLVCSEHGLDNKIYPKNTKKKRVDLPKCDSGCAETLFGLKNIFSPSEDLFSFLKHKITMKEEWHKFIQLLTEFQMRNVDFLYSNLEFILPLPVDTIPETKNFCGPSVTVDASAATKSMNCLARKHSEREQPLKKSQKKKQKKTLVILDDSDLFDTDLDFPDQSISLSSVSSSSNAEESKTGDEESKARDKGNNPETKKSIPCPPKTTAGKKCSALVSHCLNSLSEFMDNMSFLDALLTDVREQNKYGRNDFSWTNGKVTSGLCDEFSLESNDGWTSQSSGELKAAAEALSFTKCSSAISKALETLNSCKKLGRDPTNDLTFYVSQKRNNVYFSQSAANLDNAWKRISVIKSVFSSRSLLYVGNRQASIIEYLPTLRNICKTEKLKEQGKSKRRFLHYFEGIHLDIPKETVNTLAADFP

Key:
[1] = Natriuretic polypeptide receptor (hNpr1) antagonism - Pilot counterscreen GloSensor control cell line (AID 1347045; calls by dose curve; also: potency is read from the fitted curve at half-maximal effect; as to activity change, negative = inhibition: % is scaled to controls: 0 for no effect and ±100 for the full control effect)
Outline: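 HEK293 cGMP GloSensor cells preloaded 2 h with 2% GloSensor reagent, then compound 30 min before baseline luminescence read. Stimulated with 50 uM sodium nitroprusside, 20 min at room temperature, then read again; counterscreen for Npr1 antagonism.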

[2] = molecular target: N-terminal Xaa-Pro-Lys N-methyltransferase 1 (Homo sapiens) (UniProt Q9BV86); experiment: qHTS Assay for Inhibitors of N-terminal methyltransferase 1 (NTMT1): LOPAC validation of the NTMT1 SAHH-coupled ThioGlo3 Assay (AID 1347143);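 also: SAH from peptide methylation measured as thiol fluorescence via SAHH coupling and ThioGlo3; nearly all actives have a fitted effect of over 70% in size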; also: potency is read from the fitted curve at half-maximal effect; as to activity change, negative = inhibition: % is scaled to controls: 0 for no effect and ±100 for the full control effect
Outline: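 Recombinant human NTMT1 (125nM) was pre-incubated 1 min at room temperature with compounds over a concentration range, then a mix of 100uM SAM, 10uM SAHH and 15uM ThioGlo3 (concentrations in added reagent) was added. ThioGlo3 fluorescence (ex 340/em 450nm) after 30 min was normalized to the initial reading.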

[3] = molecular target: Lysine-specific demethylase 5B (Homo sapiens) (UniProt Q9UGL1); experiment: Optimization screen for KDM5B Histone Demethylases FDH coupled qHTS against the LOPAC library (AID 1347166); conditions: KDM5B demethylation, FDH-coupled NADH fluorescence; activity, negative = inhibition: at 57.5 µM (top of the series) unless noted; also: potency is read from the fitted curve at half-maximal effect
Outline: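 KDM5BDeltaAP (200nM final) preincubated 10 min with compound, then 12.5uM H3K4Me3, 25uM a-ketoglutarate, ascorbate, Fe(II), NAD+ and FDH added; 50mM HEPES pH 7.5, 0.01% Tween-20. NADH fluorescence (340/450 nm) change over 30 min, room temperature.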

[4] = Primary qHTS for small molecule stabilizers of the endoplasmic reticulum resident proteome: Secreted ER Calcium Modulated Protein (SERCaMP) assay (AID 1508630); conditions: SH-SY5Y GLuc-SERCaMP (Gaussia luciferase released on ER calcium loss) secretion, thapsigargin, luminescence; activity change, negative = inhibition: at 38.4 µM (top of the series) unless noted; also: potency is read from the fitted curve at half-maximal effect
Outline: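 GLuc-SERCaMP-expressing SH-SY5Y cells, pretreated 16 h with compound, are challenged with thapsigargin to empty ER calcium stores; after 4 h, coelenterazine is added directly to the medium and luminescence is imaged.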

[5] = qHTS Assay for Identification of Small Molecule Antagonists for NFkB Signaling Pathway (AID 895; active = well fitted inhibition curve with a large enough effect in the signal ratio, with a control signal flat, not every such curve was filed as active; inconclusive = small, poorly fitted or top-dose-only effect, or effect the other way, or a change in a side signal; the % refers to the signal ratio; also: % is scaled to controls: 0 for no effect and ±100 for the full control effect); conditions: NFkB beta-lactamase reporter cells, FRET ratio 460/530, stimulated with 10 pM TNF alpha; activity change, negative = inhibition: at 38.3 µM (top of the series)
Outline: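 ME-180 NFkB-bla cells (beta-lactamase under NFkB response element), plated overnight, treated with compound then 10 pM TNF alpha (about EC50) for 5 hrs at 37 C. LiveBLAzer FRET read at 460/530 nm emission, 405 nm excitation.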

[6] = qHTS Assay for Identification of Small Molecule Antagonists for Thrombopoietin (TPO) Signaling Pathway (AID 918); conditions: TPO-dependent cell signaling reporter, antagonist mode; activity change, negative = inhibition: at 38.5 µM (top of the series)
Outline: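 Murine Ba/F3 cells expressing human TPO receptor and a Glycoprotein IIb promoter-luciferase reporter, IL-3-starved overnight, treated with compound plus TPO at EC50 (26 pM final). After 24 h at 37 C, luminescence read to detect inhibitors.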

[7] = qHTS for differential inhibitors of proliferation of Plasmodium falciparum line GB4 (AID 1816); conditions: Potency: Plasmodium falciparum GB4 proliferation inhibition;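 also: parasite growth measured after 72 h incubation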; also: potency is read from the fitted curve at half-maximal effect;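 as to activity change, negative = inhibition: 0% = vehicle DMSO and -100% = reference inhibitor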
[8] = qHTS for differential inhibitors of proliferation of Plasmodium falciparum line 3D7 (AID 1876); also: potency is read from the fitted curve at half-maximal effect;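 as to activity, negative = inhibition: parasite growth measured after three days of culture; 0% = vehicle wells and -100% = reference inhibitor wells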
[9] = qHTS for differential inhibitors of proliferation of Plasmodium falciparum line D10 (AID 1877);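 also: parasites grown with compound for 72 h before DNA staining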; also: potency is read from the fitted curve at half-maximal effect;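 as to activity change, negative = inhibition: plate controls were vehicle wells for no effect and reference inhibitor wells for full effect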
[10] = molecular target: RecQ-like DNA helicase BLM (Homo sapiens) (UniProt P54132); experiment: qHTS Validation Assay for Inhibitors of Bloom's syndrome helicase (BLM) (AID 2364); also: potency is read from the fitted curve at half-maximal effect;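 as to activity change, negative = inhibition: plate controls were DMSO vehicle for no effect and enzyme-free control for full effect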
Outline: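 50 nM BLM preincubated 15 min at room temperature with compound in pH 8.0 Tris buffer containing 2.5 ug/ml poly(dI-dC); started with 200 nM TAMRA/BHQ-2 forked duplex and 2 mM ATP (final). Unwinding read as TAMRA fluorescence increase, two reads 2 h apart.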

[11] = molecular target: ATP-dependent 6-phosphofructokinase (Trypanosoma brucei brucei) (UniProt O15648); experiment: qHTS Validation Assay to Find Inhibitors of T. brucei phosphofructokinase (AID 485368); conditions: activity change, negative = inhibition: at 57.5 µM (top of the series); also: potency is read from the fitted curve at half-maximal effect
Outline: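 Enzyme reaction in triethanolamine buffer pH 8.0 with 5 mM MgCl2, 0.01% Tween20 and 0.1% BSA; PFK 1.25 nM, F6P 0.5 mM, ATP 0.1 mM, 45 min RT. ADP quantified by ADP-Glo.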

[12] = Quantitative high throughput screen for delayed death inhibitors of the malarial parasite plastid, 96 hour incubation (AID 488745); also: % is scaled to controls: 0 for no effect and ±100 for the full control effect; nearly all actives have a fitted effect of over 70% in size
Outline: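 Luciferase-expressing P. falciparum in erythrocytes (2% hematocrit, 0.1% parasitemia) incubated with compound for 96 h at 37 C, 5% CO2, in RPMI 1640 with 0.5% Albumax. Growth inhibition read as decreased luminescence.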

[13] = qHTS for Inhibitors of ATXN expression: Validation (AID 588378); also: nearly all actives have a fitted effect of over 75% in size; also: potency is read from the fitted curve at half-maximal effect; as to activity change, negative = inhibition: % is scaled to controls: 0 for no effect and ±100 for the full control effect
Outline: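 Luciferase luminescence (Bright-Glo) from an ATXN2-FFLuc HEK293 line after 24 h compound exposure at 37 °C, preceded by a CellTiter-Fluor fluorescence viability read. Serial dilutions of a reference ATXN2 inhibitor and a luciferase inhibitor served as controls.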

[14] = molecular target: Arylsulfatase A (Homo sapiens) (UniProt P15289); experiment: qHTS screen for enhancers of Arylsulfatase A (ASA1): LOPAC Validation Assay (AID 720538); conditions: activity change, positive = activation: at 57.5 µM (top of the series); also: potency is read from the fitted curve at half-maximal effect
Outline: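 Enhancer assay in patient-derived MLD fibroblasts carrying ASA-I179S: 48 h compound exposure at 37 C, then 14 h room-temperature pNCS turnover (0.5 mM final) in lysis buffer. Read by fluorescence at 525/598 nm after NaOH stop.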

[15] = molecular target: ATPase family AAA domain-containing protein 5 (Homo sapiens) (UniProt Q96QE3); experiment: Validation screen for small molecules that inhibit ELG1-dependent DNA repair in human embryonic kidney (HEK293T) cells expressing luciferase-tagged ELG1 (AID 493107); conditions: HEK293T ELG1-luciferase level, luminescence, 5-fluorouridine co-treatment, 16 h; activity change, negative = decrease: at 46.1 µM (top of the series); also: potency is read from the fitted curve at half-maximal effect; nearly all actives have a fitted effect of over 70% in size
Outline: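 HEK293T cells expressing luciferase-tagged ELG1, 2,000 per well, treated with 5-fluorouridine plus compound for 16 h at 37 C. ONE-Glo luminescence after 30 min at room temperature reports ELG1 reporter level.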

[16] = qHTS for Inhibitors of ATXN expression: Validation of Cytotoxic Assay (AID 588349); also: potency is read from the fitted curve at half-maximal effect
Outline: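 HEK293 cells treated with titrated compound for 72 hr at 37 degrees C; viability read as intracellular ATP by CellTiter Glo luminescence.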

[17] = molecular target: Endonuclease 4 (Escherichia coli (strain K12)) (UniProt P0A6C1); experiment: Counterscreen for APE1 Inhibitors: qHTS Validation Assay for Inhibitors of Endonuclease IV (AID 1708); also: potency is read from the fitted curve at half-maximal effect
Outline: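 E. coli EndoIV at 2 nM final, preincubated 15 min at room temperature with compound, then 50 nM TAMRA/BHQ-2 THF abasic-site duplex added. Buffer: 50 mM Tris-HCl pH 7.5, 50 mM NaCl, 2 mM MgCl2, 1 mM DTT, 0.01% Tween-20. Kinetic fluorescence increase, third minus first read.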

[18] = Validation screen for small molecules that induce DNA re-replication in MCF 10A normal breast cells (AID 463097); also: 0% is about no effect; nearly all actives have a fitted effect of over 60% in size
Outline: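 Read-out is Hoechst total nuclear intensity by fluorescence scanning imager, flagging increased high-DNA-content nuclei. Compounds were incubated with MCF 10A cells for 48 hr (37 C, 5% CO2) before 40 min staining.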

For `C[C@]12C=CC(=O)C=C1CC[C@@H]1C2=CC[C@]2(C)[C@@H](C(=O)CN3CCN(c4cc(N5CCCC5)nc(N5CCCC5)n4)CC3)CC[C@@H]12`, the Potency [1] was “inactive”, the Potency [2] was inconclusive: 79.4 µM [inhibitor, partial curve] and the Potency [3] was inconclusive: 28.2 µM [inhibitor, partial curve, poor fit]. For the same compound, the Potency [4] was inconclusive: 7.94 µM [inhibitor, partial curve, poor fit].

For `N[C@@H](Cc1c[nH]c2ccccc12)C(=O)O`, the activity change, negative = inhibition [5] was inconclusive: 6.82%, the activity change, negative = inhibition [6] was inconclusive: 10.6% [phenotype inactive] and the Potency [7] was inconclusive: 17.8 µM [inhibitor, partial curve, poor fit]. The Potency [8] was inconclusive: 8.91 µM [inhibitor, single point], the Potency [9] was inconclusive: 14.1 µM [inhibitor, single point] and the Potency [10] was inconclusive: 50.1 µM [inhibitor, partial curve, poor fit]. For the same compound, the Potency [11] was inconclusive: 9.53 µM [falling, partial curve], the Potency [12] was “inactive” and the Potency [13] was “inactive”. The Potency [14] was inconclusive: 8.49 µM [activator, partial curve], the Potency [1] was “inactive” and the Potency [2] was “inactive”. The Potency [4] was inconclusive: 35.5 µM [inhibitor, partial curve, poor fit].

With `COc1ccc2c(c1)CCC1C2CC[C@@]2(C)C1CC[C@@H]2NCCCCCCN1C(=O)CCC1=O` (stereo not given in full) the Potency [11] was inconclusive: 33.8 µM [activator, single point], the Potency [15] was active: 25.9 µM and the Potency [16] was inconclusive: 12.6 µM [cytotoxic, partial curve, poor fit]. For the same compound, the Potency [13] was inconclusive: 2.82 µM [inhibitor, full curve, poor fit], the Potency [1] was inconclusive: 16.5 µM [inhibitor, partial curve] and the Potency [2] was “inactive”.

In the case of `COc1cccc(C(=O)NCCN2CCN(c3ccc(Cl)cc3)CC2)c1`, the Potency [5] is reported as “inactive”, the activity change, negative = inhibition [6] is reported as inconclusive: -28.6% [phenotype inactive] and the Potency [17] is reported as inconclusive: 7.94 µM [inhibitor, full curve, poor fit]. For the same compound, the Potency [7] was “inactive”, the Potency [8] was inconclusive: 17.8 µM [inhibitor, single point] and the Potency [9] was inconclusive: 12.6 µM [inhibitor, partial curve, poor fit]. For the same compound, the Potency [10] was “inactive”, the Potency [11] was “inactive” and the Potency [15] was inconclusive: 11.6 µM [inhibitor, partial curve, poor fit]. The Potency [16] was “inactive”, the Potency [1] was inconclusive: 4.65 µM [inhibitor, partial curve] and the Potency [2] was “inactive”. The Potency [4] was inconclusive: 28.2 µM [inhibitor, single point].

In the case of `CC(=O)C(C)=O`, the Potency [8] is reported as “inactive”, the Potency [9] is reported as “inactive” and the Potency [10] is reported as “inactive”. For the same compound, the Potency [11] was “inactive”, the Potency [1] was “inactive” and the Potency [2] was “inactive”. For the same compound, the Potency [4] was inconclusive: 7.94 µM [inhibitor, partial curve, poor fit].

With `C=CCNc1ncnc2ccc(Br)cc12` the Potency [11] was “inactive”, the Potency [15] was active: 7.3 µM and the Potency [1] was “inactive”. The Potency [4] was inconclusive: 31.6 µM [inhibitor, partial curve, poor fit].

With `Nn1nnc2ccccc21` the activity change, negative = inhibition [5] was inconclusive: -39.5%, the Potency [17] was “inactive” and the Potency [7] was inconclusive: 11.2 µM [inhibitor, single point]. The Potency [8] was inconclusive: 12.6 µM [inhibitor, single point], the Potency [11] was “inactive” and the Potency [16] was “inactive”. The Potency [13] was “inactive”, the Potency [14] was inconclusive: 8.49 µM [activator, single point] and the Potency [1] was “inactive”. The Potency [2] was “inactive” and the Potency [3] was inconclusive: 44.7 µM [inhibitor, partial curve, poor fit].

For `Oc1cc2c(c(Cl)c1O)CCNCC2c1ccccc1` (stereo not given), the Potency [10] was inconclusive: 56.2 µM [inhibitor, partial curve, poor fit], the Potency [18] was “inactive” and the Potency [11] was inconclusive: 2.39 µM [falling, full curve]. For the same compound, the Potency [13] was inconclusive: 39.8 µM [inhibitor, single point], the Potency [1] was “inactive” and the Potency [3] was inconclusive: 20 µM [inhibitor, partial curve, poor fit]. The Potency [4] was inconclusive: 31.6 µM [inhibitor, partial curve, poor fit] and inactive.
